Measurements as given in PubChem BioAssay AID587 (National Center for Advancing Translational Sciences (NCATS), 2007).
Hit rate of the full screen: of about 59,000 compounds, about 35 (0.06%) were called active. The inconclusive results got no clear call from the source; some entries with a clear call stand among them for comparison. No stated cut-off is given here; in the data, active means max dye-equivalent concentration above about 10 nM; inconclusive means between about 1.1 nM and that limit; inactive means weaker than that.

Assay: qHTS Assay for Spectroscopic Profiling in Texas Red Spectral Region
Settings: Compound fluorescence, Texas Red channel, 547/618 nm; hits give high values
Procedure, shortened: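 qHTS profiling of intrinsic compound fluorescence; 100 mM Tris pH 8.0; 15 min RT; ex 547 / em 618 nm; response expressed as Texas Red dye-equivalent concentration from six-point plate standard.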

SMILES	max dye-equivalent concentration
O=C(CSc1nnc(-c2cccnc2)o1)c1cc2ccccc2oc1=O	inconclusive: 2.5 nM
O=C(Oc1ccc2c(c1)CCC2)N1CCOCC1	inconclusive: 1.5 nM
O=C(NCc1ccccc1)NC(=O)c1ccccc1	inconclusive: 1.5 nM
COc1cc2c(cc1O)[C@@H](c1cc(O)c(O)c(OC)c1)[C@@](O)(C(=O)O)[C@@H](CO)[C@@H]2O	inactive
Cc1ccc(Cl)cc1N(CC(=O)NC1CCCCC1)S(C)(=O)=O	inconclusive: 1.7 nM
COc1ccc2oc(=O)c(C(=O)N3CCc4ccccc43)cc2c1	inconclusive: 1.2 nM
Cc1c(-c2ccc(F)cc2)nc(N)c(C#N)c1-c1ccco1	inconclusive: 1.2 nM
COc1ccccc1CNc1nc(-c2ccccc2OC)nc2ccccc12	inconclusive: 1.2 nM
O=c1c(-c2ccccc2)c(O)nc2ccccn12	inconclusive: 1.2 nM
N#CC1=C(N)N(c2ccccc2)C2=C(C(=O)CCC2)C1c1ccsc1 (centres undefined)	inactive
COc1ccc(NC(=O)CSc2nnc(-c3ccccc3Cl)n2Cc2ccco2)c(OC)c1	inconclusive: 3.6 nM
CCOc1ccc(C(=O)C(c2ccccc2)N2CCOCC2)cc1 (centres undefined)	inconclusive: 1.1 nM
Cc1cccc(C(=O)NC2CCN(CC(=O)N3CCOCC3)CC2)c1	inconclusive: 1.4 nM
CNC(=O)Cn1c(=O)n(C)c2ccccc21	inconclusive: 1.1 nM
COc1ccccc1CN1CC2(CCN(C(=O)c3cc(C(F)(F)F)cc(C(F)(F)F)c3)CC2)C1	inconclusive: 1.2 nM
CCCCOC(=O)C1=C(C)Nc2ncnn2C1c1cccc(OC)c1 (centres undefined)	inconclusive: 2.3 nM
CCOC(=O)CC(=O)CSc1ccc2nnc(-c3ccc(F)cc3)n2n1	inconclusive: 1.1 nM
CCC(C)NC(=O)CSc1nc2n[nH]c(C)c2c(=N)n1-c1ccc(OC)cc1 (centres undefined)	inconclusive: 2.5 nM
CCOC(=O)c1nn(-c2ccccc2)c(=O)c(C#N)c1C	inconclusive: 2.1 nM
COc1cccc(NS(=O)(=O)c2ccc(NC(C)=O)cc2)c1	inconclusive: 1.3 nM
O=c1oc2ccccc2n1CSC1=NCCS1	inconclusive: 1.9 nM
O=C(Nc1ccc(S(=O)(=O)N2CCc3ccccc32)cc1)c1ccc2c(c1)OCO2	inconclusive: 1.1 nM
CSc1nnc2c(n1)OC(c1cccn1C)N(C(C)=O)c1ccccc1-2 (centres undefined)	inactive

2 compounds drawn at random from the list so far:
SMILES	max dye-equivalent concentration
O=c1oc2ccccc2n1CSC1=NCCS1	inconclusive: 1.9 nM
CCC(C)NC(=O)CSc1nc2n[nH]c(C)c2c(=N)n1-c1ccc(OC)cc1 (centres undefined)	inconclusive: 2.5 nM

Continuation:

SMILES	max dye-equivalent concentration
Cc1ccc(NS(=O)(=O)c2ccc(CCC(=O)N3CCOCC3)cc2)cc1	inconclusive: 1.1 nM
O=C1Nc2ccc(S(=O)(=O)N3CCOCC3)c3cccc1c23	inconclusive: 1.1 nM
CC[C@](C)(CN(C)C)OC(=O)c1ccccc1	inactive
Cc1cccc(OCc2nnc3n2CCCCC3)c1	inconclusive: 1.4 nM
COc1cc(C(=O)NCCC(=O)NCc2ccc3c(c2)OCO3)cc(OC)c1OC	inconclusive: 1.1 nM
CCc1cc2c(=O)c(-c3nc4ccccc4[nH]3)coc2cc1OC(=O)N1CCOCC1	inactive
C=CCn1c(SCc2cc(=O)n3ccsc3n2)nc2sc(C)c(C)c2c1=O	inconclusive: 1.7 nM
O=S(=O)(c1ccc(Br)s1)N1CCCCC1	inconclusive: 1.2 nM
Cc1ccc(S(=O)(=O)C(C#N)c2nc3ccccc3nc2N2CCC(C)CC2)cc1 (centres undefined)	inconclusive: 1.7 nM
O=P(COCCO)(c1ccccc1)c1ccccc1	inconclusive: 2 nM
O=C(CC(c1ccc(F)cc1)c1ccco1)N1CCOCC1 (centres undefined)	inconclusive: 1.2 nM
Cc1cccc(Cn2c(=O)c3c(nc4n3CCCN4Cc3ccccc3)n(C)c2=O)c1	inconclusive: 1.1 nM
O=C1CC(N2CCC(c3nc4ccccc4[nH]3)CC2)C(=O)N1Cc1ccccc1 (centres undefined)	inconclusive: 1.3 nM
Cc1ccc2c(CC(=O)Nc3sccc3C(N)=O)coc2c1	inconclusive: 1.9 nM
CCOC(=O)Nc1ccc(NC(=O)c2c(OC)cccc2OC)cc1	inconclusive: 1.3 nM
O=C(Nc1ccc(-c2noc(COc3ccccc3Cl)n2)cc1)c1ccco1	inconclusive: 1.8 nM
O=C(c1ccc(N2CCOCC2)cc1)c1cccs1	inactive
CC(C)CNS(=O)(=O)c1ccc(CCC(=O)N2CCN(Cc3ccc4c(c3)OCO4)CC2)cc1	inconclusive: 1.1 nM
COc1cccc(NC(=O)c2ocnc2C)c1	inconclusive: 1.8 nM
CCOC(=O)c1coc(CNC(=O)c2c(C)oc3c2CCCC3)c1	inconclusive: 1.1 nM
Cn1c(=O)[nH]c2cc3ccccc3cc21	inconclusive: 2 nM
Cc1ccc(-c2nnn(CC(=O)N(c3cccc(F)c3)C(C(=O)NC3CCCC3)c3ccco3)n2)o1 (centres undefined)	inconclusive: 2.3 nM
COc1ccc(N2CCN(C(=O)CCCn3c(=S)[nH]c4cc5c(cc4c3=O)OCO5)CC2)cc1	inconclusive: 1.8 nM

Arranged by SMILES length (falling): three of the compounds above
SMILES	max dye-equivalent concentration
COc1cc(C(=O)NCCC(=O)NCc2ccc3c(c2)OCO3)cc(OC)c1OC	inconclusive: 1.1 nM
COc1ccc2oc(=O)c(C(=O)N3CCc4ccccc43)cc2c1	inconclusive: 1.2 nM
CC[C@](C)(CN(C)C)OC(=O)c1ccccc1	inactive

Continuation:

SMILES	max dye-equivalent concentration
CC1Cc2ccccc2N1C(=O)CSc1nnc(-c2ccc(S(=O)(=O)N3CCCCC3)cc2)o1 (centres undefined)	inconclusive: 1.3 nM
CN(c1ccccc1C(=O)N1CCN(c2cccc(Cl)c2)CC1)S(C)(=O)=O	inconclusive: 1.8 nM
Cc1nn(Cc2ccccc2)c(C)c1C(=O)Nc1ccc(N2CCOCC2)cc1	inconclusive: 1.4 nM
Cc1cc(=O)[nH]c2cc3oc4ccccc4c3cc12	inactive
CN(CCNC(=O)C1CC(=O)N(c2ccc(F)c(Cl)c2)C1)Cc1ccccc1 (centres undefined)	inconclusive: 1.1 nM
CCCNC(=O)c1cc(S(=O)(=O)N2CCc3ccccc32)ccc1F	inconclusive: 1.4 nM
O=C(c1ccc(Cl)cc1)C1C2C(=O)N(c3ccccc3)C(=O)C2C2CCCN21 (centres undefined)	inactive
Cc1cc(C(=O)OCC(=O)N2CCc3ccccc32)c(C)o1	inconclusive: 2.4 nM
COc1ccc(C)cc1-n1nnnc1SCc1cc(=O)n2cc(C)ccc2n1	inconclusive: 1.9 nM
C=Cn1ccnc1P(=S)(c1ccc2c(c1)c1ccccc1n2CC)c1nccn1C=C	inconclusive: 1.1 nM
Cc1cc(C(F)F)n2nc(C(=O)Nc3c(F)cc(F)cc3Br)nc2n1	inactive
Oc1oc(-c2ccco2)nc1C=Nc1ccccc1	inconclusive: 1.2 nM
COc1ccc(C2CCCN2C(=O)Nc2cccc(C(C)=O)c2)cc1OC (centres undefined)	inconclusive: 1.2 nM
COCCn1nnnc1CN(Cc1cccnc1)Cc1cc2cc(OC)ccc2[nH]c1=O	inconclusive: 1.1 nM
COc1ccc(C(=O)NC(=O)N2CCCCC2)cc1	inconclusive: 1.1 nM
COc1cccc(C2C(C#N)=C(N)Oc3cc(C)n(Cc4ccco4)c(=O)c32)c1 (centres undefined)	inconclusive: 2 nM
CCSc1nnc(NC(=O)C(CC)Oc2ccccc2)s1 (centres undefined)	inconclusive: 1.1 nM
CN(CCOC(=O)c1cccc(Br)c1)C(C)(C)C	inconclusive: 1.1 nM
COc1ccc(-c2nnc(CSc3ncnc4sc5c(c34)CCC5)o2)cc1OC	inconclusive: 1.1 nM
Fc1cccc2sc(N3CCCCC3)nc12	inconclusive: 1.4 nM
O=C(CN(C(=O)CSc1nnc(COc2ccccc2)o1)c1ccc(F)cc1)NC1CCCCC1	inconclusive: 1.3 nM
CCC(CC)C(=O)N(c1ccc(F)cc1)C1C=CS(=O)(=O)C1 (centres undefined)	inconclusive: 1.5 nM
Cc1ccc(-n2nnnc2SCC(=O)N2CCN(C(=O)c3ccco3)CC2)c(C)c1	inconclusive: 1.4 nM

SMILES	max dye-equivalent concentration
Cc1ccnc(N2CCC(C(=O)NCc3ccc4c(c3)OCO4)CC2)n1	inconclusive: 1.1 nM
COc1ccc(CCC(=O)NCc2ccco2)cc1	inconclusive: 1.7 nM
CCCCC1CCC(C(=O)NC2CCS(=O)(=O)C2)CC1 (centres undefined)	inactive
COc1ccc2nc(NCCO)[nH]c2c1	inconclusive: 1.2 nM
CCOc1ccccc1N1CCN(C(=O)c2cccc(-c3ccc(O)cc3)c2)CC1	inconclusive: 2.2 nM
CCN(CC)S(=O)(=O)c1cccc(-c2nnc(SCC(N)=O)n2CCc2ccccc2)c1	inconclusive: 1.7 nM
CN1CCc2c(cc(O)c(O)c2Cl)[C@H](c2cccc(Cl)c2)C1	inactive
O=C(NCCCN1CCCC1)c1cccc(N2CCCC2=O)c1	inconclusive: 1.3 nM
CCN1C(=S)SC(=O)C1=C1C=C(C)N(CCOC)C(C)=C1	inactive
c1nc(NC2CCCCC2)c2[nH]cnc2n1	inconclusive: 1.1 nM
CCn1cnc2cc(NCc3nc4ccccc4n3C)ccc21	inconclusive: 1.7 nM
Cn1c(COc2ccc3ccccc3c2)nnc1SCC(=O)O	inconclusive: 1.9 nM
COc1ccc(S(=O)(=O)NCCSC(C)(C)C)cc1Cl	inconclusive: 1.1 nM
CCOC(=O)C1CCN(C(=O)COc2ccc(N(C)S(=O)(=O)c3cccs3)cc2)CC1	inconclusive: 1.3 nM
O=C(C1CCC1)N1CCc2cc(S(=O)(=O)Nc3ccc4c(c3)OCCO4)ccc21	inconclusive: 1.6 nM
O=C(Cc1ccc(Br)cc1)N1CCN(c2ccccc2)CC1	inconclusive: 1.8 nM
CC(C)CCOc1ccc(C(=O)O)cc1	inconclusive: 1.1 nM
COc1ccc(OC)c(CN2C(=O)CCC2(C)C(=O)NC2CCCCCC2)c1 (centres undefined)	inactive
Cc1nc(N)nc2ccccc12	inactive
CC(=O)C(C)Oc1cc(C)cc2oc(=O)c(C)c(C)c12 (centres undefined)	inconclusive: 1.2 nM
